Data on 3 molecules can be found in the supplement of paper PMC10032668.

The chains behind the UniProt entries cited, without tags or fusion partners.
DCTN5, Q9BTE1, UniProt Q9BTE1, whole entry: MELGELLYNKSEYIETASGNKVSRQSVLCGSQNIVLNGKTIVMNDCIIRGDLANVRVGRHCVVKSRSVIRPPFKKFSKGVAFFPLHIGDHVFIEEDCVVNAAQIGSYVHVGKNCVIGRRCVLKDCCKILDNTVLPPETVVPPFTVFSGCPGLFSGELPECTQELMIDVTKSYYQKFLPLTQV
NDUFS3, O75489, UniProt O75489, whole entry: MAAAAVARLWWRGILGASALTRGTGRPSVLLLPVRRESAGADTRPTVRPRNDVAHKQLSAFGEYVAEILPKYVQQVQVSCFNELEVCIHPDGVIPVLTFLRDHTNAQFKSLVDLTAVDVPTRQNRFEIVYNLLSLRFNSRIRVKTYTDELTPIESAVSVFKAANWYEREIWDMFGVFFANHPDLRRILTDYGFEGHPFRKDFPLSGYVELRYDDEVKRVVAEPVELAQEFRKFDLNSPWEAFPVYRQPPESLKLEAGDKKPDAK
RNASET2, O00584, UniProt O00584, whole entry: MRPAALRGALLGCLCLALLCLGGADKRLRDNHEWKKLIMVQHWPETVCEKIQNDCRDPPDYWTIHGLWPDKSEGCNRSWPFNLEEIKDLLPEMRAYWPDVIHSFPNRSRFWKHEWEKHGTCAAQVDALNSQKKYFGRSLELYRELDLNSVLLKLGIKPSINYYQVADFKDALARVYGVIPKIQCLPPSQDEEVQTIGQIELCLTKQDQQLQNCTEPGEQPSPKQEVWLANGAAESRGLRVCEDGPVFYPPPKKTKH
SNX1, Q13596, UniProt Q13596, whole entry: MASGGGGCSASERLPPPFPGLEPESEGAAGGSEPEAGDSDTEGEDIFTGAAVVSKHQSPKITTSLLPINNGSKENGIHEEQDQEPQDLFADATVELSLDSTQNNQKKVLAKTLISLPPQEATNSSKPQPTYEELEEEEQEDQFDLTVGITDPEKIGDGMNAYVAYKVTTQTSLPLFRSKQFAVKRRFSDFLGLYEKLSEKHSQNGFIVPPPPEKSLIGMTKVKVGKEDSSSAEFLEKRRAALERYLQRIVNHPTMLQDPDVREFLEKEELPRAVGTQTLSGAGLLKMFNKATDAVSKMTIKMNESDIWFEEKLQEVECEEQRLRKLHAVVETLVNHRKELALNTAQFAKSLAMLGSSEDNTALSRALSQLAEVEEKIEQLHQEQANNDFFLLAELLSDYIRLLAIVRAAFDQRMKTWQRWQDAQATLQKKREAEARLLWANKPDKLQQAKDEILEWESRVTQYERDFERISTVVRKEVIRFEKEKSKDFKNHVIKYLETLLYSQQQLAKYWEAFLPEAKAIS
MSN, P26038, UniProt P26038, whole entry: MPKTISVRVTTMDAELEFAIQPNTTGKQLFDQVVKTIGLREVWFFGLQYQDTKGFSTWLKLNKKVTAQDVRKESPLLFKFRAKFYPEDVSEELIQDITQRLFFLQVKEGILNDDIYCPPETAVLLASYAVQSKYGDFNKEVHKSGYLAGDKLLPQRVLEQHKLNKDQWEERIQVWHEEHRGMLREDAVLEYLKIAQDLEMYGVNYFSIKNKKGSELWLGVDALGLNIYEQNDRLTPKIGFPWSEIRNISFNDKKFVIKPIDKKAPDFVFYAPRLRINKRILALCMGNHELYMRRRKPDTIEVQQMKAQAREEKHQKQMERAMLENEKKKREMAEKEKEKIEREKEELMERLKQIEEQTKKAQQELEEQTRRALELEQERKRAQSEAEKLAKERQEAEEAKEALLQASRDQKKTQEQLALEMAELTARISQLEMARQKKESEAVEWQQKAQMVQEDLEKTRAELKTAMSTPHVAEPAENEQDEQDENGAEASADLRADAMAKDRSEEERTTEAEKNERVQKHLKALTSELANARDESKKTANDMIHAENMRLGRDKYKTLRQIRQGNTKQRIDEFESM

What all share (assay): PRISMA enrichment of interactor (LFQ) in peptide spot vs all other peptide spots (log2 fold change); higher = stronger / more specific binding of the interactor to the peptide
The target in one experiment is ABCF1, Q8NE71. As to the method:
(§1)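 PRISMA: 15-aa overlapping tiles (offset 8 aa) of 60 microproteins, plus SOS1/GLUT1 control peptides, were spot-synthesized on cellulose membranes in triplicate. Membranes were incubated with benzonase-treated HEK293T lysate, and bound proteins were identified by LC-MS/MS with LFQ. Enrichment is the log2 fold change of each protein in one spot versus all other spots. Only interactors passing the significance cutoff are listed.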

A further experiment addresses ARGLU1, Q9NWB6. The method, then:
as §1

Another experiment concerns the target BRD2, P25440. The method, then:
as §1

For another experiment, the target named is CHD1, O14646. As to the method: as §1
For the next experiment, the target named is DCTN5, Q9BTE1. As to the method: as §1
The target in a further experiment is GATAD2A, Q86YP4. The method, then:
as §1

For the next experiment, the target named is MAP4, P27816. As to the method:
as §1

Another experiment deals with MRPS9, P82933. As to the method:
as §1

A further experiment deals with NDUFS3, O75489. As to the method: as §1
Another experiment addresses NOP14, P78316. The method, then:
as §1

In another experiment the target is NUDC, Q9Y266. As to the method:
as §1

The target of the next experiment is ORC4, O43929. As to the method: as §1
Another experiment deals with PDCL3, Q9H2J4. As to the method:
as §1

A further experiment addresses PHF8, Q9UPP1. The method, then: as §1
The target in another experiment is PSMB2, P49721. The method, then:
as §1

A further experiment concerns the target RNASET2, O00584. As to the method: as §1
The target in the next experiment is SNX1, Q13596. The method, then:
as §1

The target of the next experiment is STAU1, O95793. The method, then: as §1
The next experiment addresses UBAP2, Q5T6F2. As to the method:
as §1

A further experiment concerns the target XRCC6, P12956. The method, then:
as §1

A further experiment deals with BAG4, O95429. As to the method: as §1
The next experiment deals with CBX3, Q13185. As to the method: as §1
The next experiment has as its target CIAPIN1, Q6FI81. As to the method: as §1
Another experiment addresses CYP51A1, Q16850. The method, then:
as §1

The target of the next experiment is GEMIN2, O14893. As to the method: as §1
The next experiment concerns the target HTATSF1, O43719. As to the method: as §1
The target of a further experiment is MSN, P26038. As to the method: as §1
For the next experiment, the target named is SUGP1, Q8IWZ8. The method, then:
as §1

The target in a further experiment is TFB1M, Q8WVM0. The method, then: as §1
The next experiment deals with VRK1, Q99986. As to the method:
as §1

The next experiment deals with ABHD14B, Q96IU4. The method, then:
as §1

Another experiment deals with ALYREF, Q86V81. As to the method:
as §1

The next experiment deals with CHP1, Q99653. As to the method:
as §1

A further experiment has as its target COA7, Q96BR5. As to the method:
as §1

In the next experiment the target is CSTF1, Q05048. As to the method: as §1
Another experiment deals with DHCR24, Q15392. As to the method:
as §1

The target in another experiment is DR1, Q01658. The method, then:
as §1

In another experiment the target is DSTN, P60981. The method, then:
as §1

In the next experiment the target is IDH3B, O43837. The method, then: as §1
In a further experiment the target is NECAP2, Q9NVZ3. The method, then: as §1
Another experiment addresses PSMD4, P55036. The method, then: as §1
The next experiment concerns the target SNAP47, Q5SQN1. As to the method:
as §1

A further experiment deals with ZDBF2, Q9HCK1. The method, then:
as §1

Some of the results follow. Only hits are listed; about a third recur on repeated control peptides.

B1: RP3-332B22.1 (peptide)
chain: RLHFCNILLMKASHK
For B1, the “PRISMA enrichment of interactor (log2)” value with ABCF1, Q8NE71 was found to be 10.3; in the experiment with ARGLU1, Q9NWB6, 5.75; with BRD2, P25440 it was 4.41; in the experiment with CHD1, O14646, 7.53; with DCTN5, Q9BTE1 it was 5.8; in the experiment with GATAD2A, Q86YP4 it was 4.62. For the same molecule, the “PRISMA enrichment of interactor (log2)” value is 6 in the experiment with MAP4, P27816; 5.57 with MRPS9, P82933; 7.3 with NDUFS3, O75489; 5.52 with NOP14, P78316; 4.54 with NUDC, Q9Y266; 4.92 in the experiment with ORC4, O43929. Further, the “PRISMA enrichment of interactor (log2)” value with PDCL3, Q9H2J4 was 4.67; with PHF8, Q9UPP1, 5.46; with PSMB2, P49721, 4.78; with RNASET2, O00584 it was 3.96; with SNX1, Q13596, 4.39; with STAU1, O95793, 5.75. For the same molecule, the “PRISMA enrichment of interactor (log2)” value in the experiment with UBAP2, Q5T6F2 was determined as 6.15; with XRCC6, P12956 it was 5.54.

B2: RP11-140K17.3_2 (peptide)
chain: PAGLSWKPSSLWNSE
On to B2, for which the “PRISMA enrichment of interactor (log2)” value stood at 4.86 in the experiment with ABCF1, Q8NE71; 7.15 with BAG4, O95429; 4.75 with CBX3, Q13185; 4.09 with CIAPIN1, Q6FI81; 4.3 in the experiment with CYP51A1, Q16850; 4.14 in the experiment with GEMIN2, O14893. Also, the “PRISMA enrichment of interactor (log2)” value worked out at 6.78 with HTATSF1, O43719; 4.86 with MSN, P26038; 4.4 with SUGP1, Q8IWZ8; 7.69 in the experiment with TFB1M, Q8WVM0; 5.14 with VRK1, Q99986.

B3: TBX5-AS1 (peptide)
chain: MSSYLTSEPRWAGNR
B3: the “PRISMA enrichment of interactor (log2)” value with ABCF1, Q8NE71 came out at 4.7; with ABHD14B, Q96IU4 it was 6.91; with ALYREF, Q86V81, 6.54; with CHP1, Q99653, 5.71; in the experiment with COA7, Q96BR5, 5.63; with CSTF1, Q05048 it was 4.3. Further, the “PRISMA enrichment of interactor (log2)” value in the experiment with DHCR24, Q15392 was 6.24; in the experiment with DR1, Q01658, 4.36; with DSTN, P60981, 8.1; with IDH3B, O43837, 6.53; in the experiment with NECAP2, Q9NVZ3, 4.92; with PSMD4, P55036, 5.4. Moreover, the “PRISMA enrichment of interactor (log2)” value in the experiment with SNAP47, Q5SQN1 was determined as 6.44; with ZDBF2, Q9HCK1 it was 4.14.
